Data published in US20060210973A1.
These are yes or no findings as the source states them, for the method shown.

Target: Vav bait (aa. 172-598)
Assay: yeast two-hybrid, growth on selective medium

B1: TRIAPα (Trio inhibitory aptamer), yeast two-hybrid prey (designed binder, not shown: large carriers)
chain: MSDKIIHLTDDSFDTDVLKADGAILVDFWAEWCGPAREGADGAICGYNLATLVMLGPSERVFCPLCEPCSSDIYELMGPCKMIAPILDEIADEYQGKLTVAKLNIDQNPGTAPKYGIRGIPTLLLFKNGEVASATKVGALSKGQLKEFLDANLA
B1 was tested, and the binding was “no binding”.
